From the supplement of paper PMC9233669
Variants at the floor of the assay are shown more often than the library holds them.

How the values were obtained:
biotinyl-Met-oxazolone = test: self-aminoacylation, catalytic enhancement (BMO) (fold over background); higher = more active; k-Seq, kA / k0A0; sequences stand for … in GGGAAUGGAUCCACAUCUACGAAUUC…UUCACUGCAGACUUGACGAAGCUG
In short: (§1)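 Catalytic enhancement equals the median kA over the uncatalyzed rate, the latter read from the low-activity peak of a bimodal Gaussian fit. Values of kA came from fitting each sequence's fraction reacted to a pseudo-first-order model, with 1000 bootstraps. Reacted RNA was captured with streptavidin and quantified by triplicate qPCR and Illumina sequencing after 90 minutes at room temperature with 2–1250 μM biotinyl-aminoacyl-oxazolone and 0.43 μM mutagenized RNA pools bearing a 21-nt variable region.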

biotinyl-Ile-oxazolone = test: self-aminoacylation, catalytic enhancement (BIO) (fold over background); higher = more active; k-Seq, kA / k0A0; sequences stand for … in GGGAAUGGAUCCACAUCUACGAAUUC…UUCACUGCAGACUUGACGAAGCUG
In short: as §1

biotinyl-Val-oxazolone = test: self-aminoacylation, catalytic enhancement (BVO) (fold over background); higher = more active; k-Seq, kA / k0A0; sequences stand for … in GGGAAUGGAUCCACAUCUACGAAUUC…UUCACUGCAGACUUGACGAAGCUG
In short: as §1

biotinyl-Trp-oxazolone = test: self-aminoacylation, catalytic enhancement (BWO) (fold over background); higher = more active; k-Seq, kA / k0A0; sequences stand for … in GGGAAUGGAUCCACAUCUACGAAUUC…UUCACUGCAGACUUGACGAAGCUG
In short: as §1

biotinyl-Leu-oxazolone = test: self-aminoacylation, catalytic enhancement (BLO) (fold over background); higher = more active; k-Seq, kA / k0A0; sequences stand for … in GGGAAUGGAUCCACAUCUACGAAUUC…UUCACUGCAGACUUGACGAAGCUG
In short: as §1

Sequence	self-aminoacylation (biotinyl-Met-oxazolone)	self-aminoacylation (biotinyl-Ile-oxazolone)	self-aminoacylation (biotinyl-Val-oxazolone)	self-aminoacylation (biotinyl-Trp-oxazolone)	self-aminoacylation (biotinyl-Leu-oxazolone)
AAGUUUACUAAAAGUCGCAAG [Fam3.1 aminoacylation ribozyme variant]	1.7	1.85	1.61	1.67	–
ACACACUUCAAGCCAUCGGUC [Fam1B.1 aminoacylation ribozyme variant]	1.85	1.72	1.89	2	–
AUUACCCUGGUCACCGAGUAA [Fam2.1 aminoacylation ribozyme variant]	–	1.88	–	1.65	–
AUUCACAUAGGUCGUCGGGUG [Fam2.2 aminoacylation ribozyme variant]	1.96	1.73	1.88	1.73	–
AUUCACCUAGGUCAUCGAGUU [Fam2.2 aminoacylation ribozyme variant]	–	–	–	1.92	–
AUUCACCUAGGUCAUCUCGUG [Fam2.2 aminoacylation ribozyme variant]	1.72	1.29	1.45	1.8	–
AUUCACCUAGGUCUUCAGGUG [Fam2.2 aminoacylation ribozyme variant]	–	1.77	1.86	1.62	–
AUUGACCUAGGUCAUCGGGAG [Fam2.2 aminoacylation ribozyme variant]	1.33	1.67	1.48	–	1.35
AUUUCCCUGUUCAUCGAGUGA [Fam2.1 aminoacylation ribozyme variant]	5.22	2.79	3.09	–	5.04
CAACACUUCAAGCAAUCGGGC [Fam1B.1 aminoacylation ribozyme variant]	–	–	–	1.69	–
CAACAUCAAACAAUCGGUCUG [Fam1A.1 aminoacylation ribozyme variant]	0.835	1.1	0.87	–	0.886
CAACUUCAAACAAUCGCUCUG [Fam1A.1 aminoacylation ribozyme variant]	1.14	1.34	1.31	–	1.41
CAACUUCAAACAAUCGGUCCG [Fam1A.1 aminoacylation ribozyme variant]	0.704	0.872	0.944	–	1.2
CAACUUCAAACAAUCGGUCUA [Fam1A.1 aminoacylation ribozyme variant]	0.924	1.31	1.29	–	1.37
CCAAACUUCAAGCAAUCGGUU [Fam1B.1 aminoacylation ribozyme variant]	1.73	1.61	1.66	–	1.65
CCACACGUCAAGCAAUCGGCC [Fam1B.1 aminoacylation ribozyme variant]	1.33	1.05	1.54	–	0.806
CCACACUUCAAGCAGUCUGUC [Fam1B.1 aminoacylation ribozyme variant]	0.383	0.339	0.478	–	0.353
CCACACUUCAAGCCAUAGGUC [Fam1B.1 aminoacylation ribozyme variant]	0.622	0.812	0.688	–	0.632
CCACACUUCACGCGAUCGGUC [Fam1B.1 aminoacylation ribozyme variant]	1.48	1.46	2.17	–	1.84
CCACAGUUCAAGCAAUCGGUC [Fam1B.1 aminoacylation ribozyme variant]	1.01	1.1	1.13	–	1.1
CCACCCUUCAAUCAAUCGGUC [Fam1B.1 aminoacylation ribozyme variant]	1.19	1.2	1.25	–	1.54

Sequence	self-aminoacylation (biotinyl-Met-oxazolone)	self-aminoacylation (biotinyl-Ile-oxazolone)	self-aminoacylation (biotinyl-Val-oxazolone)	self-aminoacylation (biotinyl-Trp-oxazolone)	self-aminoacylation (biotinyl-Leu-oxazolone)
CCACCUCAAACAAUCGGUCUG [Fam1A.1 aminoacylation ribozyme variant]	1.5	1.52	1.95	–	1.43
CCACUUCAAACAAUCGGCCUG [Fam1A.1 aminoacylation ribozyme variant]	4.68	4.3	4.05	–	7.46
CCACUUCAAAUAAUCGGUCUG [Fam1A.1 aminoacylation ribozyme variant]	1.32	1.17	1.13	–	1.42
CCCCACUUAAAGCAAUCGGUC [Fam1B.1 aminoacylation ribozyme variant]	1.19	1.53	1.71	–	1.21
CCCCACUUUAAGCAAUCGGUC [Fam1B.1 aminoacylation ribozyme variant]	0.858	1.38	1.69	–	1.06
CCGCACUUCAACCAAUCGGUC [Fam1B.1 aminoacylation ribozyme variant]	2.05	2.09	2.38	–	3.41
CGAAUUCAAACAAUCGGUCUG [Fam1A.1 aminoacylation ribozyme variant]	0.875	0.96	0.84	–	1.03
CGACACUUCACGCAAUCGGUC [Fam1B.1 aminoacylation ribozyme variant]	1.4	1.56	1.75	1.7	–
CGACCUCAAACAAUCGGUCUG [Fam1A.1 aminoacylation ribozyme variant]	1.36	1.51	1.45	–	1.31
CGACUUCAAACAAUCGGUCUA [Fam1A.1 aminoacylation ribozyme variant]	0.98	1.19	1.43	–	1.17
CUACACUUCAAGUAAUCGGUC [Fam1B.1 aminoacylation ribozyme variant]	0.657	0.647	0.613	–	0.807
CUACACUUCAAUCAAUCGGUC [Fam1B.1 aminoacylation ribozyme variant]	0.833	0.853	0.884	–	1.32
CUACUCCAAACAAUCGAUCUG [Fam1A.1 aminoacylation ribozyme variant]	0.48	0.704	0.661	–	0.533
CUACUUCAAAAAAUCGGUAUG [Fam1A.1 aminoacylation ribozyme variant]	0.727	0.769	0.728	–	0.691
CUACUUCAAACAAGCGGUCUA [Fam1A.1 aminoacylation ribozyme variant]	0.838	0.936	0.707	–	0.73
CUACUUCAAACAAUCGGACUG [Fam1A.1 aminoacylation ribozyme variant]	0.749	0.848	0.836	–	0.885
CUACUUCAAACAAUCGGGGUG [Fam1A.1 aminoacylation ribozyme variant]	3.77	3.04	2.35	–	4.32
CUACUUCAAACAAUCGGUCAC [Fam1A.1 aminoacylation ribozyme variant]	0.719	0.703	0.816	–	0.863
CUACUUCAAACAAUCGGUCGG [Fam1A.1 aminoacylation ribozyme variant]	1.2	1.15	1.13	–	1.7
CUACUUCAAAUAAUCGGACUG [Fam1A.1 aminoacylation ribozyme variant]	0.655	0.721	0.587	–	0.582
CUACUUCAACCAAUCGGUCGG [Fam1A.1 aminoacylation ribozyme variant]	1.55	1.24	1.11	–	1.34

Sequence	self-aminoacylation (biotinyl-Met-oxazolone)	self-aminoacylation (biotinyl-Ile-oxazolone)	self-aminoacylation (biotinyl-Val-oxazolone)	self-aminoacylation (biotinyl-Trp-oxazolone)	self-aminoacylation (biotinyl-Leu-oxazolone)
CUACUUCAACUAAUCGGUCUG [Fam1A.1 aminoacylation ribozyme variant]	0.807	0.779	0.938	–	0.871
CUACUUCAAGCAAUCGGUCCG [Fam1A.1 aminoacylation ribozyme variant]	0.902	1	0.982	–	1.09
CUACUUCAAGCAAUCGGUCUG [Fam1A.1 aminoacylation ribozyme variant]	0.95	0.907	0.943	–	1.15
CUACUUCAAUCAAUCGGUCUC [Fam1A.1 aminoacylation ribozyme variant]	0.912	1	0.926	–	1.2
CUAGUUCAAACAAUCGGUCUG [Fam1A.1 aminoacylation ribozyme variant]	0.89	0.91	0.846	–	1.03
CUAUUUCAAACAACCGGUCUG [Fam1A.1 aminoacylation ribozyme variant]	0.85	0.992	0.861	–	0.844
CUAUUUCAAACAAUCGGCCUG [Fam1A.1 aminoacylation ribozyme variant]	1.34	1.36	1.24	–	1.38
CUCCUUCAAACAAUCGGACUG [Fam1A.1 aminoacylation ribozyme variant]	0.931	1.01	1.16	–	1.42
CUGCUUCAAUCAAUCGGUCUG [Fam1A.1 aminoacylation ribozyme variant]	1.42	1.03	1.14	–	1.97
CUUAUUCAAACAAUCGGUCUG [Fam1A.1 aminoacylation ribozyme variant]	0.713	0.702	0.688	–	0.679
CUUCUUCAAACAAUCGGUUUG [Fam1A.1 aminoacylation ribozyme variant]	0.884	0.861	0.875	–	1.26
GAGUUUGCUAAUAGUCGAAAG [Fam3.1 aminoacylation ribozyme variant]	1.61	1.61	1.17	–	1.32
GCACAUUUCAAGCAAUCGGUC [Fam1B.1 aminoacylation ribozyme variant]	1.5	1.61	1.68	–	1.67
GUACUUCAAACAAUCAGUCUG [Fam1A.1 aminoacylation ribozyme variant]	1.11	1.38	1.25	–	1.56
GUACUUCAAACAAUCGGACUG [Fam1A.1 aminoacylation ribozyme variant]	1.42	1.47	1.35	–	1.28
UCACACUUCAAGCAAUCGGCC [Fam1B.1 aminoacylation ribozyme variant]	1.91	1.84	1.45	–	1.99
UUACUUCAAACAAUCGGUCUA [Fam1A.1 aminoacylation ribozyme variant]	0.828	0.808	0.75	–	0.683
UUACUUCAAACAAUCGGUCUU [Fam1A.1 aminoacylation ribozyme variant]	1.07	1.25	1.05	–	1.27
UUUCACCUAGGUGAUCGGGUG [Fam2.2 aminoacylation ribozyme variant]	3.5	3.55	3.67	–	4.15
